Values of other authors as cited in patent US9283256B2, “Antibacterial composition comprising Salvia extracts” (Botanic Century (Beijing) Co. Ltd., priority 2007, dated 2016).
For at least one compound, name, drawing or mass did not settle the structure.

What was measured:
Staphylococcus aureus [1] = conditions: filter paper disc, chemicals isolated from Danshen; cited from earlier work
Staphylococcus aureus [2] = conditions: cited from earlier work
Escherichia coli = conditions: cited from earlier work

C[C@H]1COC2=C1C(=O)C(=O)c1c2ccc2c1CCCC2(C)C [D, Cryptotashinone]
anti-Staphylococcus aureus activity (Staphylococcus aureus [1]): demonstrated anti-Staphylococcus aureus activity | potency compared with tanshinone IIA (Staphylococcus aureus [2]): more potent than tanshinone IIA | potency compared with tanshinone IIA (Escherichia coli): more potent than tanshinone IIA
